# Measurements as given in the supplement of paper PMC8728848.
# The list shows a part of the results.
# B1: LF82 (Escherichia coli) (protein)
# chain: ADWGPCRTASGDPFIFVTSFTKNIQNPTDNVTGQTYPDFYQWALGDKYSGVCECPSPNPTEARPTLYKTESTLAAGHNSTYFKITNNLEVSTRVYIANVGNVQVPFINKSNSQPGRECDQPTFGWTTGSKGQLSLYIAKPFVGEQNIPQTIIVSVFGTKKENVYSSVPISQVLLSGKVTVTQGCELAAGTSLDIDFGEYQAHDFKGRTGQPPQNVQKIQKELTFNCTNISDGVHIYLSLEGTPNAAYPSAISLGNADVGAVIEDGKGNILKPNDSNSLLEMNPGSLYEYVKRKVTTTITAYPVSTTGKLPAAGDYSGVATMHVELDGGGGGGGGGGATTDLGAKGTLKFSLKISQGHHHHHH
# Experiments:
# Experiment in all cases: glycan array binding signal (z-score within array); higher = stronger binding
# Details in all cases: glycan notation: IUPAC condensed, linker removed
# [1] = molecular target: Neu5Ac(a2-6)Gal(b1-4)GlcNAc(b1-3)Gal(b1-4)GlcNAc(b1-3)GalNAc
# In short: (§1)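 Glycan array data were curated from 3228 arrays in the Consortium for Functional Glycomics database and kept only where the protein sequence was available. Glycan names were converted to IUPAC-condensed notation, and columns mapping to the same glycan were averaged. The binding signal is a within-array Z-score, averaged across arrays of the same protein sequence at different concentrations or buffers and across linkers. Negative Z-scores can be read as non-binding.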
# [2] = molecular target: Neu5Ac(a2-6)Gal(b1-4)GlcNAc(b1-3)Gal(b1-4)GlcNAc(b1-3)[Neu5Ac(a2-6)Gal(b1-4)GlcNAc(b1-3)Gal(b1-4)GlcNAc(b1-6)]GalNAc
# In short: as §1
# [3] = molecular target: Neu5Ac(a2-6)Gal(b1-4)GlcNAc(b1-3)Gal(b1-4)GlcNAc(b1-6)[Gal(b1-3)]GalNAc
# In short: as §1
# [4] = molecular target: Neu5Ac(a2-6)Gal(b1-4)GlcNAc(b1-3)Gal(b1-4)[Fuc(a1-3)]GlcNAc(b1-3)Gal(b1-4)[Fuc(a1-3)]GlcNAc
# In short: as §1
# [5] = molecular target: Neu5Ac(a2-6)Gal(b1-4)GlcNAc(b1-3)GalNAc
# In short: as §1
# [6] = molecular target: Neu5Ac(a2-6)Gal(b1-4)GlcNAc(b1-3)[Neu5Ac(a2-6)Gal(b1-4)GlcNAc(b1-6)]GalNAc
# In short: as §1
# [7] = molecular target: Neu5Ac(a2-6)Gal(b1-4)GlcNAc(b1-6)GalNAc
# In short: as §1
# [8] = molecular target: Neu5Ac(a2-6)Gal(b1-4)GlcNAc(b1-6)[Gal(b1-3)GlcNAc(b1-3)]Gal(b1-4)Glc
# In short: as §1
# [9] = molecular target: Neu5Ac(a2-6)Gal(b1-4)GlcNAc(b1-6)[Gal(b1-3)]GalNAc
# In short: as §1
# [10] = molecular target: Neu5Ac(a2-6)Gal(b1-4)GlcNAc6S
# In short: as §1
# Neu5Ac(a2-6)GalNAc = molecular target: Neu5Ac(a2-6)GalNAc
# In short: as §1
# [11] = molecular target: Neu5Ac(a2-6)GalNAc(b1-4)GlcNAc
# In short: as §1
# [12] = molecular target: Neu5Ac(a2-6)GalNAc(b1-4)GlcNAc6S
# In short: as §1
# [13] = molecular target: Neu5Ac(a2-6)GlcNAc(b1-4)GlcNAc
# In short: as §1
# [14] = molecular target: Neu5Ac(a2-6)GlcNAc(b1-4)GlcNAc(b1-4)GlcNAc
# In short: as §1
# Neu5Ac(a2-8)Neu5Ac = molecular target: Neu5Ac(a2-8)Neu5Ac
# In short: as §1
# [15] = molecular target: Neu5Ac(a2-8)Neu5Ac(a2-3)Gal(b1-3)GalNAc(b1-4)[Neu5Ac(a2-3)]Gal(b1-4)Glc
# In short: as §1
# [16] = molecular target: Neu5Ac(a2-8)Neu5Ac(a2-3)Gal(b1-3)GalNAc(b1-4)[Neu5Ac(a2-8)Neu5Ac(a2-3)]Gal(b1-4)Glc
# In short: as §1
# [17] = molecular target: Neu5Ac(a2-8)Neu5Ac(a2-3)Gal(b1-4)Glc
# In short: as §1
# [18] = molecular target: Neu5Ac(a2-8)Neu5Ac(a2-3)Gal(b1-4)GlcNAc
# In short: as §1
# [19] = molecular target: Neu5Ac(a2-8)Neu5Ac(a2-3)[Gal(b1-3)GalNAc(b1-4)]Gal(b1-4)Glc
# In short: as §1
# [20] = molecular target: Neu5Ac(a2-8)Neu5Ac(a2-3)[GalNAc(b1-4)]Gal(b1-4)Glc
# In short: as §1
# [21] = molecular target: Neu5Ac(a2-8)Neu5Ac(a2-8)Neu5Ac
# In short: as §1
# [22] = molecular target: Neu5Ac(a2-8)Neu5Ac(a2-8)Neu5Ac(a2-3)Gal(b1-4)Glc
# In short: as §1
# [23] = molecular target: Neu5Ac(a2-8)Neu5Ac(a2-8)Neu5Ac(a2-3)[Gal(b1-3)GalNAc(b1-4)]Gal(b1-4)Glc
# In short: as §1
# [24] = molecular target: Neu5Ac(a2-8)Neu5Ac(a2-8)Neu5Ac(a2-3)[GalNAc(b1-4)]Gal(b1-4)Glc
# In short: as §1
# [25] = molecular target: Neu5Ac(a2-8)Neu5Ac(a2-8)Neu5Ac(a2-8)Neu5Ac(a2-3)[GalNAc(b1-4)]Gal(b1-4)Glc
# In short: as §1
# [26] = molecular target: Neu5Ac(a2-8)Neu5Gc(a2-3)Gal(b1-4)GlcNAc
# In short: as §1
# [27] = molecular target: Neu5Ac(b2-6)Gal(b1-4)GlcNAc
# In short: as §1
# Neu5Ac(b2-6)GalNAc = molecular target: Neu5Ac(b2-6)GalNAc
# In short: as §1
# [28] = molecular target: Neu5Ac9Ac(a2-3)Gal(b1-3)GlcNAc
# In short: as §1
# [29] = molecular target: Neu5Ac9Ac(a2-3)Gal(b1-4)GlcNAc
# In short: as §1
# [30] = molecular target: Neu5Ac9Ac(a2-6)Gal(b1-4)GlcNAc
# In short: as §1
# [31] = molecular target: Neu5Gc(a2-3)Gal(b1-3)GlcNAc
# In short: as §1
# [32] = molecular target: Neu5Gc(a2-3)Gal(b1-3)[Fuc(a1-4)]GlcNAc
# In short: as §1
# Neu5Gc(a2-3)Gal(b1-4)Glc = molecular target: Neu5Gc(a2-3)Gal(b1-4)Glc
# In short: as §1
# [33] = molecular target: Neu5Gc(a2-3)Gal(b1-4)GlcNAc
# In short: as §1
# [34] = molecular target: Neu5Gc(a2-3)Gal(b1-4)GlcNAc(b1-3)Gal(b1-4)GlcNAc(b1-2)Man(a1-3)[Neu5Gc(a2-3)Gal(b1-4)GlcNAc(b1-3)Gal(b1-4)GlcNAc(b1-2)Man(a1-6)]Man(b1-4)GlcNAc(b1-4)GlcNAc
# In short: as §1
# [35] = molecular target: Neu5Gc(a2-3)Gal(b1-4)[Fuc(a1-3)]GlcNAc
# In short: as §1
# [36] = molecular target: Neu5Gc(a2-6)Gal(b1-4)GlcNAc
# In short: as §1
# Neu5Gc(a2-6)GalNAc = molecular target: Neu5Gc(a2-6)GalNAc
# In short: as §1
# [37] = molecular target: Neu5Gc(a2-8)Neu5Ac(a2-3)Gal(b1-4)GlcNAc
# In short: as §1
# [38] = molecular target: Neu5Gc(a2-8)Neu5Gc(a2-3)Gal(b1-4)GlcNAc
# In short: as §1
# [39] = molecular target: Neu5Gc(a2-8)Neu5Gc(a2-3)Gal(b1-4)GlcNAc(b1-3)Gal(b1-4)GlcNAc
# In short: as §1
# [40] = molecular target: Neu5Gc(a2-8)Neu5Gc(a2-6)Gal(b1-4)GlcNAc
# In short: as §1
# [41] = molecular target: Neu5Gc(b2-6)Gal(b1-4)GlcNAc
# In short: as §1
binder,measurement,setting,value
B1,glycan array binding signal (z-score),[1],-0.729
same,glycan array binding signal (z-score),[2],0.949
same,glycan array binding signal (z-score),[3],0.883
same,glycan array binding signal (z-score),[4],0.159
same,glycan array binding signal (z-score),[5],-0.16
same,glycan array binding signal (z-score),[6],1.29
same,glycan array binding signal (z-score),[7],-0.504
same,glycan array binding signal (z-score),[8],-0.769
same,glycan array binding signal (z-score),[9],1.2
same,glycan array binding signal (z-score),[10],-0.632
same,glycan array binding signal (z-score),Neu5Ac(a2-6)GalNAc,-1.27
same,glycan array binding signal (z-score),[11],-0.387
same,glycan array binding signal (z-score),[12],0.356
same,glycan array binding signal (z-score),[13],0.052
same,glycan array binding signal (z-score),[14],2.4
same,glycan array binding signal (z-score),Neu5Ac(a2-8)Neu5Ac,-0.442
same,glycan array binding signal (z-score),[15],1.07
same,glycan array binding signal (z-score),[16],-0.243
same,glycan array binding signal (z-score),[17],-1.24
same,glycan array binding signal (z-score),[18],0.061
same,glycan array binding signal (z-score),[19],-0.278
same,glycan array binding signal (z-score),[20],-0.701
same,glycan array binding signal (z-score),[21],-0.079
same,glycan array binding signal (z-score),[22],0.664
same,glycan array binding signal (z-score),[23],1.41
same,glycan array binding signal (z-score),[24],-0.553
same,glycan array binding signal (z-score),[25],2.59
same,glycan array binding signal (z-score),[26],-0.211
same,glycan array binding signal (z-score),[27],-1.23
same,glycan array binding signal (z-score),Neu5Ac(b2-6)GalNAc,-0.437
same,glycan array binding signal (z-score),[28],0.57
same,glycan array binding signal (z-score),[29],-0.415
same,glycan array binding signal (z-score),[30],-0.823
same,glycan array binding signal (z-score),[31],3.85
same,glycan array binding signal (z-score),[32],-0.11
same,glycan array binding signal (z-score),Neu5Gc(a2-3)Gal(b1-4)Glc,0.406
same,glycan array binding signal (z-score),[33],0.258
same,glycan array binding signal (z-score),[34],-0.467
same,glycan array binding signal (z-score),[35],0.971
same,glycan array binding signal (z-score),[36],1.06
same,glycan array binding signal (z-score),Neu5Gc(a2-6)GalNAc,1.03
same,glycan array binding signal (z-score),[37],0.958
same,glycan array binding signal (z-score),[38],-0.425
same,glycan array binding signal (z-score),[39],-0.48
same,glycan array binding signal (z-score),[40],-0.409
same,glycan array binding signal (z-score),[41],-0.769

# Two neighbouring entries from above, for reference:
binder,measurement,setting,value
B1,glycan array binding signal (z-score),[17],-1.24
same,glycan array binding signal (z-score),[18],0.061

# Two entries picked at random from those above:
binder,measurement,setting,value
B1,glycan array binding signal (z-score),[32],-0.11
same,glycan array binding signal (z-score),Neu5Gc(a2-3)Gal(b1-4)Glc,0.406
